# System: E. coli expressing HaloTag
# Test: Bacterial ChloroAlkane Penetration Assay (BaCAPA) pulse-chase, flow cytometry
# Type: cell-based
# Conditions: Escherichia coli, pulse with chloroalkane-tagged molecule, chase with 5 μM R110cl, IPTG induced, read-out: EC50 (apparent accumulation/permeation, BaCAPA)
# Source text: The process is useful as an assay method that is adapted from the chloroalkane penetration assay (CAPA; Kascakova S, Maigre L, Chevalier J, Refregiers M, Pages J M. Antibiotic transport in resistant bacteria: synchrotron UV fluorescence microscopy to determine antibiotic accumulation with single cell resolution. PLOS One. 2012; 7(6)), which is measures the accumulation of molecules into mammalian cells. This method relies on the genetically encoded HaloTag^24, a mutant form of a bacterial haloalkane dehalogenase that facilitates covalent bond formation with chloroalkane-linked ligands (FIG. 1). Previous efforts utilizing the HaloTag protein within bacteria focused on the visualization of protein fusions^25-26 and the role of a cationic peptide on membrane permeabilization.^27 Bacterial Chloroalkane Penetration Assay (BaCAPA) measures the apparent accumulation of molecules into bacterial cells. The assay is based on the expression of the HaloTag protein inside bacterial cells, which are exposed to molecules of interest linked to a chloroalkane tag. If the molecules reach the HaloTag proteins inside the bacteria, they will be covalently bound to the protein. […] Therefore, a decrease in cellular fluorescence signal should be reflective. […]
# HaloTag Protein Expression: Cytoplasmic HaloTag protein. […] The pellet was washed three times with 1×PBS pH 7.2 following which cells were ready for assaying. […]
row,Compound,EC50 [µM]
1,O=C(CN1CCN(c2cc3c(cc2F)c(=O)c(C(=O)O)cn3C2CC2)CC1)NCCOCCOCCCCCCCl [Compound 7],6.5
2,"O=C(NCCOCCOCCCCCCCl)c1cn(C2CC2)c2cc(N3CCNCC3)c(F)cc2c1=O [Compound 8, Ciprofloxacin-carboxy-HaloTag amide]",0.5

# — patent publication US20250305023A1, “MEASUREMENT OF PERMEATION OF SMALL MOLECULES INTO GRAM NEGATIVE BACTERIA” (University of Virginia Patent Foundation, priority 2022, published 2025)
